Source: PubChem BioAssay AID1224829 (NIAID, 2016)
Purpose: 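Secondary check of hits that alter LPS-induced p65 translocation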 (follow-up of hits). Cells: mouse RAW264.7 G9 macrophage reporter cells. Reagents: single siRNA against mouse genes, 100 nM. Time to read-out: 2 days of siRNA knock-down, then 40 min of LPS before fixing. Challenge: LPS (Salmonella minnesota R595) at 10 ng/ml. Detection: 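Imaging of GFP-p65 after 40 min of LPS; nuclear over perinuclear ring intensity ratio, scaled to plate median and non-targeting control wells, given as z-score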. Direction: p65 translocation z-score: higher = more nuclear NF-kappaB p65 after LPS. Call rule: 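Active means the replicate-mean z-score lies beyond plus or minus 2, in either direction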. Meaning of the calls: active = changed p65 translocation (either direction); inactive = no clear change.
This is an unselected part of about 3,800 reagents tested. 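Calls cover raised and lowered translocation; gene median uses one vendor's three siRNAs; qiagen siRNAs acted more weakly than ambion siRNAs.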 Reagents against one gene are numbered here. Further read-outs or replicates are left out here.

target	reagent no.	siRNA vendor or control pool	p65 translocation z-score, replicate mean	p65 translocation z-score, replicate 1	p65 translocation z-score, replicate 2	Call
Brs3 (bombesin-like receptor 3)	1	ambion single siRNA	1.38	1.38		inactive
Brs3 (bombesin-like receptor 3)	2	ambion single siRNA	-0.247	0.278	-0.773	inactive
Brs3 (bombesin-like receptor 3)	3	ambion single siRNA	-0.556	-0.275	-0.836	inactive
Brs3 (bombesin-like receptor 3)	4	qiagen single siRNA	-0.0923	-0.553	0.368	inactive
Brs3 (bombesin-like receptor 3)	5	qiagen single siRNA	0.236	-0.029	0.502	inactive
Brs3 (bombesin-like receptor 3)	6	qiagen single siRNA	1.09	0.679	1.5	inactive
Or2t47 (olfactory receptor family 2 subfamily T member 47)	1	ambion single siRNA	0.329	-0.157	0.815	inactive
Or2t47 (olfactory receptor family 2 subfamily T member 47)	2	ambion single siRNA	0.0741	0.143	0.00552	inactive
Or2t47 (olfactory receptor family 2 subfamily T member 47)	3	ambion single siRNA	-0.367	-0.118	-0.615	inactive
Or2t47 (olfactory receptor family 2 subfamily T member 47)	4	qiagen single siRNA	-0.515	-1.01	-0.0164	inactive
Or2t47 (olfactory receptor family 2 subfamily T member 47)	5	qiagen single siRNA	-5.43	-5.43		active
Or2t47 (olfactory receptor family 2 subfamily T member 47)	6	qiagen single siRNA	-3.63	-1.57	-5.68	active
Rab8a (RAB8A, member RAS oncogene family)	1	ambion single siRNA	-0.748	-0.787	-0.709	inactive
Rab8a (RAB8A, member RAS oncogene family)	2	ambion single siRNA	-0.243	0.518	-1	inactive
Rab8a (RAB8A, member RAS oncogene family)	3	ambion single siRNA	0.164	1.62	-1.29	inactive
Rab8a (RAB8A, member RAS oncogene family)	4	qiagen single siRNA	-1.73	-2.68	-0.782	inactive
Rab8a (RAB8A, member RAS oncogene family)	5	qiagen single siRNA	-0.115	-0.817	0.586	inactive
Rab8a (RAB8A, member RAS oncogene family)	6	qiagen single siRNA	-0.611	0.131	-1.35	inactive
Zfp418 (zinc finger protein 418)	1	ambion single siRNA	0.187	-0.508	0.883	inactive
Zfp418 (zinc finger protein 418)	2	ambion single siRNA	-1.46	-0.32	-2.59	inactive
Zfp418 (zinc finger protein 418)	3	ambion single siRNA	-1.44	-1.16	-1.72	inactive
Zfp418 (zinc finger protein 418)	4	qiagen single siRNA	-0.972	-0.0495	-1.89	inactive
Zfp418 (zinc finger protein 418)	5	qiagen single siRNA	1.34	0.893	1.78	inactive
Zfp418 (zinc finger protein 418)	6	qiagen single siRNA	1.68	1.9	1.46	inactive
Serpine2 (serine (or cysteine) peptidase inhibitor, clade E, member 2)	1	ambion single siRNA	-0.0459	1.67	-1.76	inactive
Serpine2 (serine (or cysteine) peptidase inhibitor, clade E, member 2)	2	ambion single siRNA	-0.351	-0.417	-0.284	inactive
Serpine2 (serine (or cysteine) peptidase inhibitor, clade E, member 2)	3	ambion single siRNA	-8.59	-10.5	-6.72	active
Serpine2 (serine (or cysteine) peptidase inhibitor, clade E, member 2)	4	qiagen single siRNA	-0.375	0.894	-1.64	inactive
Serpine2 (serine (or cysteine) peptidase inhibitor, clade E, member 2)	5	qiagen single siRNA	2.58	2.58		active
Serpine2 (serine (or cysteine) peptidase inhibitor, clade E, member 2)	6	qiagen single siRNA	-0.225	-0.225		inactive
Ufd1 (ubiquitin recognition factor in ER-associated degradation 1)	1	ambion single siRNA	-2.2	-1.85	-2.54	active
Ufd1 (ubiquitin recognition factor in ER-associated degradation 1)	2	ambion single siRNA	1	1.03	0.972	inactive
Ufd1 (ubiquitin recognition factor in ER-associated degradation 1)	3	ambion single siRNA	1.52	2.73	0.311	inactive
Ufd1 (ubiquitin recognition factor in ER-associated degradation 1)	4	qiagen single siRNA	-4.99	-4.43	-5.55	active
Ufd1 (ubiquitin recognition factor in ER-associated degradation 1)	5	qiagen single siRNA	-2.85	-3.28	-2.41	active
Ufd1 (ubiquitin recognition factor in ER-associated degradation 1)	6	qiagen single siRNA	-3.08	-2.91	-3.24	active

Entries above marked active, once more:
target	reagent no.	siRNA vendor or control pool	p65 translocation z-score, replicate mean	p65 translocation z-score, replicate 1	p65 translocation z-score, replicate 2	Call
Or2t47 (olfactory receptor family 2 subfamily T member 47)	5	qiagen single siRNA	-5.43	-5.43		active
Or2t47 (olfactory receptor family 2 subfamily T member 47)	6	qiagen single siRNA	-3.63	-1.57	-5.68	active
Serpine2 (serine (or cysteine) peptidase inhibitor, clade E, member 2)	3	ambion single siRNA	-8.59	-10.5	-6.72	active
Serpine2 (serine (or cysteine) peptidase inhibitor, clade E, member 2)	5	qiagen single siRNA	2.58	2.58		active
Ufd1 (ubiquitin recognition factor in ER-associated degradation 1)	1	ambion single siRNA	-2.2	-1.85	-2.54	active
Ufd1 (ubiquitin recognition factor in ER-associated degradation 1)	4	qiagen single siRNA	-4.99	-4.43	-5.55	active
Ufd1 (ubiquitin recognition factor in ER-associated degradation 1)	5	qiagen single siRNA	-2.85	-3.28	-2.41	active
Ufd1 (ubiquitin recognition factor in ER-associated degradation 1)	6	qiagen single siRNA	-3.08	-2.91	-3.24	active
